Results published in PMC7819943, “Rice protein-binding microarrays: a tool to detect cis-acting elements near promoter regions in rice”.
The other results are listed elsewhere or left out.

Sequences of proteins named here, by UniProt entry; tags and fusion partners are left off.
UniProt Q0JBA9, entry or part of it: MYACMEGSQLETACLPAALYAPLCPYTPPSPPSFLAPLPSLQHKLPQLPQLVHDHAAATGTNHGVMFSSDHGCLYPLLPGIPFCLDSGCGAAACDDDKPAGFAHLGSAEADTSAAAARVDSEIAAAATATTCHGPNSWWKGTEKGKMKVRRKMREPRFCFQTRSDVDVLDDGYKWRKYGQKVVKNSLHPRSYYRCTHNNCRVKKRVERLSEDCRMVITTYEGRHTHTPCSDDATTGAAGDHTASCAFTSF

Molecular target: OsWRKY34 (Oryza sativa, UniProt Q0JBA9 1-250)
Assay: protein-binding microarray (RPBM); PBS, 2% BSA, 51.3 ng/ul salmon testes DNA, 50 uM zinc acetate, 200 nM TF, 25 C, 1 h; high values mean tight binding
Details: protein: recombinant; tags: N-terminal polyhistidine and DsRed monomer fusion (pET32a); label: CyDye5-dUTP incorporated in the synthesized complementary strand; 3' TTTTT single-stranded linker to array surface; dsDNA, one strand shown
Method in brief: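 Binding signal is reported as fluorescence intensity per feature (arbitrary units) from an Axon 4000B scanner. Incubation used 200 nM of each Ni–NTA-purified, N-terminally polyhistidine- and DsRed-fused transcription factor from E. coli BL21-CodonPlus on a double-stranded custom Agilent array for 1 h at 25 °C, with 50 µM zinc acetate in the buffer, followed by washing.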

Sequence | binding signal
CTTTTTTTTGGTTTGCCGTGTGGTGGGTTTCGGGTCCGCGCGGAGTCACCTAGTGCAG | 14500 fluorescence intensity (a.u.)
AGTCATGATGGCCAATGGTATTTCGTGCATTTCTTACATTCGGAGTCACCTAGTGCAG | 9710 fluorescence intensity (a.u.)
GCGTTTTACAAGTTTATGTACTAGATTACACCCACCTGATCGGAGTCACCTAGTGCAG | 10000 fluorescence intensity (a.u.)
GTATGGTACAGCACATTTCTCTGTTCAAGTGTTCATTATGCGGAGTCACCTAGTGCAG | 8610 fluorescence intensity (a.u.)
AGTATCATATTGTAGTTCTTTATCTGACTTGCTTCGATTCCGGAGTCACCTAGTGCAG | 8390 fluorescence intensity (a.u.)
GTGGTTATTTCTGGTGCCTTATTATGGAATCTCTTCCGTTCGGAGTCACCTAGTGCAG | 9220 fluorescence intensity (a.u.)
TATTTATTTATTTTATTTTTGACTTACTTTATTATTCAATCGGAGTCACCTAGTGCAG | 8130 fluorescence intensity (a.u.)
TGGGTGGTAAATGGGTTTCTAGCTGGTATAAGTACTACACCGGAGTCACCTAGTGCAG | 9670 fluorescence intensity (a.u.)
GCTAGCTTGGGTTTCTGCTGTGCTGTCTAGTTCCTTTCCTCGGAGTCACCTAGTGCAG | 8320 fluorescence intensity (a.u.)
TGCGTGTGTGGGTGTGTGGTGGAGTGAGTAAAAAGTGAAGCGGAGTCACCTAGTGCAG | 8150 fluorescence intensity (a.u.)
CATCGACAATGTTGGTTACCGTCACCCACTTTCTTGCTGCCGGAGTCACCTAGTGCAG | 8820 fluorescence intensity (a.u.)
CACGCATCCGTCTCCTCCTCGCGGAATAATAACCTTTTTTCGGAGTCACCTAGTGCAG | 8920 fluorescence intensity (a.u.)
ATTTGCTATTTTAGATGTTGTTTTTAGATAGATGCTATTTCGGAGTCACCTAGTGCAG | 10000 fluorescence intensity (a.u.)
TCTTCATGCAGCTAGACAAACCTTATTGCATCTTTCTGTTCGGAGTCACCTAGTGCAG | 10600 fluorescence intensity (a.u.)
TTGGCCAACTCGCTTTTGTCTTCTTTGGTGGTTGCCCTCTCGGAGTCACCTAGTGCAG | 9730 fluorescence intensity (a.u.)
TTTTGTGTTTTTTCCTGTGGTCCAATCAAACGCGTTTTTTCGGAGTCACCTAGTGCAG | 9400 fluorescence intensity (a.u.)
TGCCTGCTAGCCCGCTTGTGTTAACTGTCCTTTCTGTATCCGGAGTCACCTAGTGCAG | 8420 fluorescence intensity (a.u.)
ATCCTGGAGGCCCTCGTCGGGGTGGGAGGCGACCGTGGGACGGAGTCACCTAGTGCAG | 12600 fluorescence intensity (a.u.)
AATTCGTATCCCATTTTCTCTCCTCTCTTCTCTCATGTTCCGGAGTCACCTAGTGCAG | 8280 fluorescence intensity (a.u.)
CCCCGGGCGCGCCGCCGCCGTCCCCGTCCCTGGCCGCGCCCGGAGTCACCTAGTGCAG | 8930 fluorescence intensity (a.u.)
CACTCCTCAGCTCGCTTCTTCGTCAATCCGCCTTGCATTTCGGAGTCACCTAGTGCAG | 13800 fluorescence intensity (a.u.)

Sequence | binding signal
CACTACTGTCTATGTCTCAATTCATACTATTATATTCTATCGGAGTCACCTAGTGCAG | 9070 fluorescence intensity (a.u.)
TGTCCATTCTTCTTGTTGTTGTTCTTGCTCGGGTGGTTAGCGGAGTCACCTAGTGCAG | 8280 fluorescence intensity (a.u.)
CCCTTGCCACCACACTAGCAAAATGCATCTCTCAACAACACGGAGTCACCTAGTGCAG | 9100 fluorescence intensity (a.u.)
AAGCATATGCTCGATCGCCGATCGGTCTTTTATCTTTTCTCGGAGTCACCTAGTGCAG | 8970 fluorescence intensity (a.u.)
AGAAGTCGAGAGGGTTTTCGTGGTGGTGGTGGTGGTAGGGCGGAGTCACCTAGTGCAG | 10600 fluorescence intensity (a.u.)
TGTATTTCTATATGGACTCTGCCTTTTATTTTTCTCCGATCGGAGTCACCTAGTGCAG | 8150 fluorescence intensity (a.u.)
CACGTTCACTTCTACCTACTTTCTTAATAACCGTGTCCAACGGAGTCACCTAGTGCAG | 9330 fluorescence intensity (a.u.)
TCACATCCATGGGCCCACTTGTCATCCTCACGCTCTATGACGGAGTCACCTAGTGCAG | 9410 fluorescence intensity (a.u.)
GGTCGGGGTGATACTATCTCTTTTGTCATTGTGGGTGGTCCGGAGTCACCTAGTGCAG | 13500 fluorescence intensity (a.u.)
GCCAACAGTTGTCGGGACTGTCACTCCACCCGTCACGCTCCGGAGTCACCTAGTGCAG | 9550 fluorescence intensity (a.u.)
AACTCAGCGAAGGCCTGGAACATCTCTCTCGCTGGAATATCGGAGTCACCTAGTGCAG | 8370 fluorescence intensity (a.u.)
TAGGTCCATAACTCCCAAACCCCTAGCATCAACATTTCACCGGAGTCACCTAGTGCAG | 8410 fluorescence intensity (a.u.)
ACATAAATTTTGAACTGGCTACACCCTACCAGTTCATTACCGGAGTCACCTAGTGCAG | 9470 fluorescence intensity (a.u.)
TTGAGTGATTTTTTTTCAACATTTGTCTTATGTATATGCTCGGAGTCACCTAGTGCAG | 8470 fluorescence intensity (a.u.)
CTCGTGCGCTACCCCTTTTTATTATTGCCGAAATCATGTTCGGAGTCACCTAGTGCAG | 9780 fluorescence intensity (a.u.)
GACTAGGGAATTTGGAGATGCATTGAGACGTCTATTTTTCCGGAGTCACCTAGTGCAG | 9060 fluorescence intensity (a.u.)
CTCTTGGAAAATTTTCTTTGAGTCTATCTCTCTCATCCGACGGAGTCACCTAGTGCAG | 8980 fluorescence intensity (a.u.)
ATGTACTAGTCATTGTTACTTAATGTTCATATAGTTTTATCGGAGTCACCTAGTGCAG | 8910 fluorescence intensity (a.u.)
GATGTGACTGTGGTGTTGCGTATGTAGTGATGTATGTCTGCGGAGTCACCTAGTGCAG | 9270 fluorescence intensity (a.u.)
AATCGTATTCAGAATTGGTTTTCTTTTATCTGCTCTTTTCCGGAGTCACCTAGTGCAG | 10600 fluorescence intensity (a.u.)
CAGTGGATTCTCGGAAGATCCTCCCATCTCACTCTTGCCCCGGAGTCACCTAGTGCAG | 8590 fluorescence intensity (a.u.)

A different layout for part of the listing above:

| Sequence | binding signal |
| --- | --- |
| TTGAGTGATTTTTTTTCAACATTTGTCTTATGTATATGCTCGGAGTCACCTAGTGCAG | 8470 fluorescence intensity (a.u.) |
| CTCGTGCGCTACCCCTTTTTATTATTGCCGAAATCATGTTCGGAGTCACCTAGTGCAG | 9780 fluorescence intensity (a.u.) |
| GACTAGGGAATTTGGAGATGCATTGAGACGTCTATTTTTCCGGAGTCACCTAGTGCAG | 9060 fluorescence intensity (a.u.) |
| CTCTTGGAAAATTTTCTTTGAGTCTATCTCTCTCATCCGACGGAGTCACCTAGTGCAG | 8980 fluorescence intensity (a.u.) |

Following part

Sequence | binding signal
TGGTCTTCATCCTACGTGGCGTTTATGTGGCACTACAATTCGGAGTCACCTAGTGCAG | 8200 fluorescence intensity (a.u.)
GGACCTTCGGTGTACTTTTTCCTATTCCTTGTCACCACTGCGGAGTCACCTAGTGCAG | 8260 fluorescence intensity (a.u.)
TATCATCTTTGCCTCGCGCCACGCTCACTTCACTTGCAGCCGGAGTCACCTAGTGCAG | 13700 fluorescence intensity (a.u.)
ATTACATCTATCATAAATTTTTTACTATACTTGTCATTTCCGGAGTCACCTAGTGCAG | 10500 fluorescence intensity (a.u.)
AATAAACAAAGTCTGCTCTTCACTTTCCGGGCTTGAAATTCGGAGTCACCTAGTGCAG | 8140 fluorescence intensity (a.u.)
CTACCAACTCCGTGAGTTATTTGTAACATTGCTTCTTTTCCGGAGTCACCTAGTGCAG | 9060 fluorescence intensity (a.u.)
CCTCGCGCCACCCGCGCCGATCCGTTCGCCTCCGCCGCCGCGGAGTCACCTAGTGCAG | 8530 fluorescence intensity (a.u.)
GCCCGCACCACCGCACGTGCACCCCTCAAACTCGCCATCGCGGAGTCACCTAGTGCAG | 9740 fluorescence intensity (a.u.)
GATATGTGTGGGTGGGTTCCTGGATCCGGCGCAGAGGTGTCGGAGTCACCTAGTGCAG | 11200 fluorescence intensity (a.u.)
CCACCACCCCGGCCATTCCATTCCATTCCATTTCTTTTCTCGGAGTCACCTAGTGCAG | 15300 fluorescence intensity (a.u.)
GCTTTCTTTTTTCTCTATGTTGATCAAATTTTAGTGTGGACGGAGTCACCTAGTGCAG | 9710 fluorescence intensity (a.u.)
TCACGCGCATTCCTCCTCTACTATTCTCAATGTCTCTCTCCGGAGTCACCTAGTGCAG | 9910 fluorescence intensity (a.u.)
AGGGCACTGTCATCGGGGTCAGGGTTAGGGTCACCGCCACCGGAGTCACCTAGTGCAG | 9600 fluorescence intensity (a.u.)
TCTTGCCGTGTTTGGTTGGGATTGCATTTGATCAAGAGGACGGAGTCACCTAGTGCAG | 9800 fluorescence intensity (a.u.)
ATTTTGATTAGTGCGTTTGATTAGTGGTGTTTATTATGTCCGGAGTCACCTAGTGCAG | 9410 fluorescence intensity (a.u.)
TAGTAGTACTCATTTACCGTTGTGACAGTTTTTATTTATCCGGAGTCACCTAGTGCAG | 12200 fluorescence intensity (a.u.)
GTACATGAGCTTTGTCTCTTTGGTAAACAGTTCTTTAAGGCGGAGTCACCTAGTGCAG | 8020 fluorescence intensity (a.u.)
AACGCAATCAATTGTCCCTTATTTCCAGTGACATTCCTTACGGAGTCACCTAGTGCAG | 10100 fluorescence intensity (a.u.)
CATTCCTTTCACCTAGTATTCTTTCTCTCATGCCTCTGTACGGAGTCACCTAGTGCAG | 9220 fluorescence intensity (a.u.)
CACCGCCCACTGCCGCGCCGCTTCGCTCCGTCGCCGCTCGCGGAGTCACCTAGTGCAG | 8990 fluorescence intensity (a.u.)
TCGTCGGTGGTGTGGGGAGGAGAAGATGGCCGGAGAGGAACGGAGTCACCTAGTGCAG | 15000 fluorescence intensity (a.u.)

Sequence | binding signal
TTTCTTCCAACCGTCTCATCCCGCTGTTATGCTAATCCAGCGGAGTCACCTAGTGCAG | 8220 fluorescence intensity (a.u.)
GTATATTAAAAGTCAACGACATGATTTTAAAAAAAAGTCACGGAGTCACCTAGTGCAG | 8570 fluorescence intensity (a.u.)
TCCTCAAGATATCTCCACGTATAACTAATCTTGCATATCCCGGAGTCACCTAGTGCAG | 9450 fluorescence intensity (a.u.)
GCTCGCACGATCCATACATGCACAGCCACTAACTACTGCACGGAGTCACCTAGTGCAG | 10800 fluorescence intensity (a.u.)
CCTTCTCTTTTGTATTGCCCCATTGCTCATTGTTTACTCCCGGAGTCACCTAGTGCAG | 12400 fluorescence intensity (a.u.)
CCTTCCTTGATCTTTCCTCTCTCTTCTTTGCCTGCCTATACGGAGTCACCTAGTGCAG | 11700 fluorescence intensity (a.u.)
AACCAAATCAATGTCCTTTCCAGTCTGGTCTTGTGTTTGACGGAGTCACCTAGTGCAG | 9580 fluorescence intensity (a.u.)
AATTTCCGCTAATGGGACAGGTTGACCATGGTTGACTTTGCGGAGTCACCTAGTGCAG | 13000 fluorescence intensity (a.u.)
GCCTCACGCGTCCTCTTTTTCACCCAAGAACCGGTGGTATCGGAGTCACCTAGTGCAG | 11200 fluorescence intensity (a.u.)
CTATTCATTTTGTATTGGATCCGATGCGTTTTATTTTCGTCGGAGTCACCTAGTGCAG | 8430 fluorescence intensity (a.u.)
GGTACTTACGTGGCAGCCCAATAGCCACCACGACCCTCCGCGGAGTCACCTAGTGCAG | 8590 fluorescence intensity (a.u.)
ATCGTTTACTTTCTTTTTGAAACTCCGTTAGATCGTTTACCGGAGTCACCTAGTGCAG | 8120 fluorescence intensity (a.u.)
TCGTGACCGTTTTCACCCCTATATCACGTGATACTTGATACGGAGTCACCTAGTGCAG | 8200 fluorescence intensity (a.u.)
TCACAATCATCGTCATTACATATCCCATATATCCCATTCACGGAGTCACCTAGTGCAG | 8260 fluorescence intensity (a.u.)
CTAAACCCTGTACAATCCTCATCCACTCAGATCTCTCTTCCGGAGTCACCTAGTGCAG | 8680 fluorescence intensity (a.u.)
ACTTCACGTTGCGCCTAGGACTGACGGTTTTCGTTAACCGCGGAGTCACCTAGTGCAG | 8420 fluorescence intensity (a.u.)
CCAGTCCAGTTACAGCCTACAGGCATCTTCTTCACACGAACGGAGTCACCTAGTGCAG | 9260 fluorescence intensity (a.u.)
TTTATACATGGTTTGTGTTTTTCTCACTTTGGGTTGGGGACGGAGTCACCTAGTGCAG | 18000 fluorescence intensity (a.u.)
TTGAAACTAAACAAGGCATTTAGCTCAAACCCTCATTGACCGGAGTCACCTAGTGCAG | 8470 fluorescence intensity (a.u.)
CACTCTCTCTTTCTGTGAAACAGTTCCTAATTTTGCACTGCGGAGTCACCTAGTGCAG | 8260 fluorescence intensity (a.u.)
TTCACGTAACTTACTTGCTCTAATCGTCGGTGGCTGGATCCGGAGTCACCTAGTGCAG | 9270 fluorescence intensity (a.u.)

Copied from the entries so far (2 entries):
Sequence | binding signal
CTAAACCCTGTACAATCCTCATCCACTCAGATCTCTCTTCCGGAGTCACCTAGTGCAG | 8680 fluorescence intensity (a.u.)
ACTTCACGTTGCGCCTAGGACTGACGGTTTTCGTTAACCGCGGAGTCACCTAGTGCAG | 8420 fluorescence intensity (a.u.)
